PubChem BioAssay AID652259 | Drosophila RNAi Screening Center | 2013
The deposit covers about 22,000 reagents; this is a random part of those with a known target gene and a result. Over the whole deposit, 233 (1.1%) got an active call. 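Light values are raw, unnormalised plate reads; the ratio scores behind the reporter calls were not deposited.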 Entries without a mark were called inactive. The numbers tell different reagents against one gene apart. Names joined by + are all predicted targets of the reagent. Not given: the amount of reagent, the time to read-out, the dose of the treatment.

Aim: 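Knock-downs that push a Wingless-driven reporter up or down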 (primary screen)
Cell system: Drosophila clone 8 imaginal disc epithelial cells
Knock-down reagent: long dsRNA against Drosophila genes
Challenge: pathway stimulated by co-transfected Wingless expression plasmid
Measurement: 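Dual luciferase reads per well after Wingless plasmid stimulation: reporter firefly light and Renilla control light; activity is firefly divided by Renilla, a ratio not deposited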
Direction: firefly reporter light: higher = more Wg reporter light, before normalisation; Renilla control light: higher = more transfected or surviving cells
Active means: 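a knock-down is a candidate when at least two out of four statistical tests show it departing from its plate mean; one test alone signals a weak candidate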
Calls: active = candidate regulator (raises or lowers reporter); inactive = not a candidate

predicted target,reagent no.,"reporter change call, replicate 1","firefly reporter light, replicate 1","firefly reporter light, replicate 2","Renilla control light, replicate 1","Renilla control light, replicate 2"
CtsL3 (Cathepsin L3),1,,10272,,3185,
CG13692,1,,2720,6470,1334,2602
CG6843,1,,13218,,2304,
CG4455,1,,7083,9.14e5,2355,4.90e5
CG4455,2,,4.28e5,4.60e5,2.66e5,1.89e5
CG15236,1,,4267,10521,265,4758
CG15236,2,,7.47e5,7.46e5,1.97e5,1.29e5
Or69a (Odorant receptor 69a),1,,5696,,2144,
Rh4 + sina,1,,6403,,2594,
CG12078,1,,5251,,1993,
Ipo9 (Importin 9),1,,10740,,3293,
PolD3 (DNA polymerase delta subunit 3),1,,8256,,3673,
CG6696,1,,13303,,7264,
CG5674,1,Wg reporter activity raised (active),2620,6133,483,1237
Trhn (Tryptophan hydroxylase neuronal),1,,20683,,6626,
l(2)37Bb (lethal (2) 37Bb),1,,3011,11088,843,4148
sano (serrano),1,,13328,,4067,
CG18477 + CG31780,1,,4417,3968,1178,2401
CG15468,1,,14658,,5829,
CG3842,1,,25921,,12130,
mRpS18A (mitochondrial ribosomal protein S18A),1,,7578,,2250,
Acp65Aa (Adult cuticle protein 65Aa),1,,1173,6360,1021,2896
CG43295,1,,3244,,1271,
CG16985,1,,7776,,2608,
CG42869 + Sfp93F,1,,3608,,336,
Uch (Ubiquitin carboxy-terminal hydrolase),1,,11176,,2522,
mRpL23 (mitochondrial ribosomal protein L23),1,,5024,,2666,
Jwa,1,,13463,,4822,
CG10764,1,,16803,,5093,
CG10132,1,,9196,,2691,
loopin-1,1,,8788,,3128,
CG10445,1,,16640,,4021,
CG9853,1,,8784,,3488,
CG9853,2,,6.36e5,5.93e5,1.72e5,2.13e5
lectin-29Ca,1,,2085,3024,762,2215
sli (slit),1,,3084,,1813,
sli (slit),2,,4.57e5,5.03e5,2.14e5,1.19e5
CG17195,1,,12456,,11571,
eIF4E3 (eukaryotic translation initiation factor 4E3),1,,5867,,2196,
ord (orientation disruptor),1,,2423,3794,418,2400
insb (insensible),1,,8440,,2361,
TyrR (Tyramine receptor),1,,4075,,2217,
TyrR (Tyramine receptor),2,,12792,,1732,
CG13829,1,,8756,,10290,
Tep4 (Thioester-containing protein 4),1,,1392,5609,568,1978
Tig (Tiggrin),1,,3729,4941,944,912
Acp36DE (Accessory gland protein 36DE),1,,3379,7128,994,3239
Chd64,1,,6144,,2352,
TfAP-2 (Transcription factor AP-2),1,,12472,,4567,
aurB (aurora B),1,,6442,,2188,
CG3611,1,,2459,5588,342,2096
ppk22 (pickpocket 22),1,,5.08e5,5.35e5,2.15e5,2.29e5
CG12994,1,,5779,,1125,
CG12994,2,,20072,,9106,
"ATPsynGL (ATP synthase, subunit G-like)",1,,2976,8352,1211,4147
CG13806,1,,5184,,1825,
Tsp42Ep (Tetraspanin 42Ep),1,,12384,,2107,
CG4612,1,,6748,,2154,
CG4892,1,,2918,7667,1258,3208
CG30466,1,,22436,,14517,
CG17974,1,,3769,8689,1370,4099
Ras64B (Ras oncogene at 64B),1,,9184,,2993,
CG4477,1,,8036,,4189,
CG12885,1,,6668,,2084,
TFAM (mitochondrial transcription factor A),1,,1970,5488,739,1220
Rcd7 (Reduction in Cnn dots 7),1,,13168,,5082,
Csp (Cysteine string protein),1,,6083,,2656,
"Dnah3 (dynein, axonemal, heavy chain 3)",1,,3722,,1529,
"Dnah3 (dynein, axonemal, heavy chain 3)",2,,2068,6912,1123,3004
CG5122,1,,2032,6601,1345,2813
Prosbeta2 (Proteasome beta2 subunit),1,,3556,,1485,
CG33673,1,,24124,,12433,
RpL26 (Ribosomal protein L26),1,,16813,,2834,
snsl (snustorr snarlik),1,,3289,6729,1096,1104
bt (bent),1,,2075,5302,812,2188
bt (bent),2,,1571,6931,969,2263
gsb-n (gooseberry-neuro),1,,24050,,11189,
gsb-n (gooseberry-neuro),2,,3523,5188,713,2077
DENR (Density regulated protein),1,,3496,9418,841,2282
ATP6AP2 (ATPase H+ transporting accessory protein 2),1,,18608,,5479,
CR15821 (pseudo),1,,6645,,3398,
CG30203,1,,5046,,2117,
CG10433,1,,20512,,4768,
Grip75,1,,1965,7248,549,2967
CG32259,1,,2235,,1412,
CtsK2 (Cathepsin K2),1,,12102,,3636,
CG31729,1,,13994,,3690,
CG31729,2,,2992,10465,864,4689
CG33111,1,,16404,,13010,
CG33111,2,,21141,,16332,
BI-1 (Bax Inhibitor-1),1,,2284,,1100,
CG30467,1,,8074,,1937,
CG1647,1,,2262,8828,752,1872

In a second layout: results already given
{"predicted target":"CG4612","reagent no.":1,"firefly reporter light, replicate 1":6748,"Renilla control light, replicate 1":2154}
{"predicted target":"CG4892","reagent no.":1,"firefly reporter light, replicate 1":2918,"firefly reporter light, replicate 2":7667,"Renilla control light, replicate 1":1258,"Renilla control light, replicate 2":3208}
{"predicted target":"CG30466","reagent no.":1,"firefly reporter light, replicate 1":22436,"Renilla control light, replicate 1":14517}
{"predicted target":"CG17974","reagent no.":1,"firefly reporter light, replicate 1":3769,"firefly reporter light, replicate 2":8689,"Renilla control light, replicate 1":1370,"Renilla control light, replicate 2":4099}
{"predicted target":"Ras64B (Ras oncogene at 64B)","reagent no.":1,"firefly reporter light, replicate 1":9184,"Renilla control light, replicate 1":2993}
{"predicted target":"CG4477","reagent no.":1,"firefly reporter light, replicate 1":8036,"Renilla control light, replicate 1":4189}
{"predicted target":"CG12885","reagent no.":1,"firefly reporter light, replicate 1":6668,"Renilla control light, replicate 1":2084}
{"predicted target":"TFAM (mitochondrial transcription factor A)","reagent no.":1,"firefly reporter light, replicate 1":1970,"firefly reporter light, replicate 2":5488,"Renilla control light, replicate 1":739,"Renilla control light, replicate 2":1220}
{"predicted target":"Rcd7 (Reduction in Cnn dots 7)","reagent no.":1,"firefly reporter light, replicate 1":13168,"Renilla control light, replicate 1":5082}
